Data as given in PubChem BioAssay AID1224830 (NIAID, 2016).

Aim: 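Genes whose knock-down alters the TNF-alpha reporter response to LPS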 (primary screen)
Cell system: human THP-1 monocytic leukaemia cells, TNF dual-luciferase reporter clone, PMA-differentiated to macrophage-like cells
Reagent: siRNA pool against human genes, 50 nM
Time to read-out: LPS for 4 h, given about 3 days after siRNA transfection
Challenge: bacterial LPS (TLR4 ligand), 10 ng/ml
Detection: 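TNF firefly reporter luminescence divided by renilla, normalised to the plate median, then turned into a robust z-score for each replicate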
Reading the numbers: TNF reporter robust z-score: higher = stronger TNF reporter response to LPS
Active means: 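Each well counts as active if its z-score is over 2.8 or under -1.5; controls are left without a call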
In all, the deposit lists about 18,000 reagents; below is a part drawn at random. Of all reagents, about 2,900 (16%) are marked active. 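Calls are made per well; low scores hint the gene aids the LPS response, high scores that it dampens it.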 Repeated entries: four replicate wells of each siRNA pool.

no.	Target gene	TNF reporter robust z-score	activity call
1	SLC32A1	-0.7	inactive
2	SLC32A1	-0.3	inactive
3	SLC32A1	-0.06	inactive
4	SLC32A1	-1	inactive
5	SDK1	-0.6	inactive
6	SDK1	-0.42	inactive
7	SDK1	-0.89	inactive
8	SDK1	0.26	inactive
9	GAGE4	0.04	inactive
10	GAGE4	-0.17	inactive
11	GAGE4	0.37	inactive
12	NFATC2IP	-1.3	inactive
13	NFATC2IP	-1.25	inactive
14	NFATC2IP	-0.53	inactive
15	NFATC2IP	-0.23	inactive
16	POLI	1.8	inactive
17	POLI	0.7	inactive
18	POLI	0.41	inactive
19	POLI	0.79	inactive
20	NPBWR1	4.82	active
21	NPBWR1	-0.79	inactive
22	NPBWR1	-0.25	inactive
23	NPBWR1	0.67	inactive
24	PDZD2	0.86	inactive
25	PDZD2	-0.06	inactive
26	PDZD2	0.41	inactive
27	PDZD2	0.09	inactive
28	NLRP9	-0.61	inactive
29	NLRP9	-0.94	inactive
30	NLRP9	0.68	inactive
31	NLRP9	-1.28	inactive
32	PTGDR	0.58	inactive
33	PTGDR	1.24	inactive
34	PTGDR	0.63	inactive
35	PTGDR	0.64	inactive
36	NUDT10	-0.2	inactive
37	NUDT10	-0.06	inactive
38	NUDT10	0.44	inactive
39	NUDT10	-0.52	inactive
40	NAT14	3.92	active
41	NAT14	0.93	inactive
42	NAT14	0.47	inactive
43	NAT14	-0.06	inactive
44	MRPL54	-0.27	inactive
45	MRPL54	-0.3	inactive
46	MRPL54	-0.53	inactive
47	MRPL54	-0.73	inactive
48	ADGRB1	0.17	inactive
49	ADGRB1	0.95	inactive
50	ADGRB1	1.61	inactive
51	ADGRB1	1.36	inactive
52	PPP1R14B	-0.33	inactive
53	PPP1R14B	0.55	inactive
54	PPP1R14B	0.47	inactive
55	PPP1R14B	0.76	inactive
56	NOP14	-1.43	inactive
57	NOP14	-1.22	inactive
58	NOP14	-1.51	active
59	NOP14	-1.44	inactive
60	UBAC1	0.29	inactive
61	UBAC1	-0.98	inactive
62	UBAC1	0	inactive
63	UBAC1	0.06	inactive
64	SLC5A10	1.15	inactive
65	SLC5A10	2.2	inactive
66	SLC5A10	3.4	active
67	SLC5A10	1.5	inactive
68	PSME1	1.04	inactive
69	PSME1	1.82	inactive
70	PSME1	-0.81	inactive
71	PSME1	-0.76	inactive
72	WBP1	0.24	inactive
73	WBP1	-0.4	inactive
74	WBP1	1.14	inactive
75	WBP1	0.88	inactive
